Taken from: PubChem BioAssay AID1259283 (Sanger Institute, 2017)

- Test: 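Kinases needed for HT115 growth and partners for drug synergy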 (primary screen)
- System: HT115 colorectal cancer cells
- Reagents: siRNA pool against human genes
- Treatment: anchor drug given one day after siRNA: BYL719 at 1 µM, cetuximab at 5 µg/ml, trametinib at 10 nM, or DMSO vehicle alone
- Detection: 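Per-drug synergy scores plus replicate-mean viability relative to non-targeting pool #2 wells, also expressed as a robust z-score based on control wells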
- Direction: robust z-score, knock-down alone: higher = more viable cells after knock-down
- Rule for the call: 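a gene counts as essential when its robust z-score with knock-down alone is below -3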
- Meaning of the calls: active = essential (z below -3, no drug); inactive = no change without drug
In all, the deposit lists 794 reagents; shown is an unselected part. Over the whole deposit, 14 (1.8%) got an active call. 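Calls reflect only viability loss without drug; drug synergy does not enter the call.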 Further read-outs or replicates are left out here. Not given: the amount of reagent, the time to read-out.

CASK scored robust z-score, knock-down alone -0.0244; inactive.
DGKH scored robust z-score, knock-down alone 0.601; inactive.
Against PPP2R1A the deposit lists robust z-score, knock-down alone 0.789; inactive.
After knock-down of HUS1 the results were robust z-score, knock-down alone -0.976; inactive.
Knock-down of HIPK3 came out at: robust z-score, knock-down alone 0.55; inactive.
For PRKCE the deposit lists robust z-score, knock-down alone -0.841; inactive.
With knock-down of BRDT, the screen gave robust z-score, knock-down alone -0.681; inactive.

Entries listed so far whose target name begins with P or p:
PPP2R1A | robust z-score, knock-down alone: 0.789; Outcome: inactive
PRKCE | robust z-score, knock-down alone: -0.841; Outcome: inactive

More results:
Knock-down of DAPK2 came out at: robust z-score, knock-down alone 0.62; inactive.
With knock-down of CRIM1 the results were robust z-score, knock-down alone 0.253; inactive.
With knock-down of LIMK2, the record shows robust z-score, knock-down alone 0.651; inactive.
CLK4 showed robust z-score, knock-down alone 0.789; inactive.
PIM3 showed robust z-score, knock-down alone 0.789; inactive.
